The record followed here is the supplement of paper PMC11348887.

The structures appear in SMILES notation. Structures can show the parent of a compound that is named as a salt. Some of the results follow. Most entries show no effect beyond the scatter of the controls.

The subject of the experiment is hPSC-derived cortical neurons (WA09). Kind of experiment: nucleus area z-score vs screen plate; higher = larger nuclei (more mature). As to conditions: 5 µM; treatment: days 7-14 after plating, readout day 21.
For the molecule `CC[C@]1(O)C[C@H]2CN(CCc3c([nH]c4ccccc34)[C@@](C(=O)OC)(c3cc4c(cc3OC)N(C=O)[C@H]3[C@@](O)(C(=O)OC)[C@H](OC(C)=O)[C@]5(CC)C=CCN6CC[C@]43[C@@H]65)C2)C1` [Vincristine], the nucleus area z-score was -7.77.

In turn, `CC(=O)OCC(=O)[C@@]1(O)[C@H](C)C[C@H]2[C@@H]3CCC4=CC(=O)C=C[C@]4(C)[C@@]3(F)[C@@H](O)C[C@@]21C` [Dexamethasone Acetate] gave a nucleus area z-score of -0.975.

`CCCCCCCCCCCCCCCCn1cc[n+](Cc2ccccc2)c1C` registered a nucleus area z-score of -18.2.

`NC1=N[C@@]2(c3cc(NC(=O)c4ccc(F)cn4)ccc3F)COC[C@H]2CS1`: the nucleus area z-score is 1.13.

In turn, `O=C(Nc1cccc2cccnc12)c1ccc(N2C(=O)[C@@H]3[C@H](C2=O)[C@@H]2C=C[C@H]3C2)cc1` [IWR-1-endo] gave a nucleus area z-score of -0.421.

For `CC(C)(C)C(=O)C(Oc1ccc(Cl)cc1)n1ccnc1` (stereo not drawn) [Climbazole], the nucleus area z-score is -0.00668.

The molecule `O=C1Nc2ccc(I)cc2/C1=C/c1cc(Br)c(O)c(Br)c1` yielded a nucleus area z-score of 1.45.

Molecule `COc1ccc(/C=C\c2cc(OC)c(OC)c(OC)c2)cc1O` [Combretastatin A4] displayed a nucleus area z-score of -11.8.

On to `CN(c1ccccc1CNc1nc(Nc2ccc3c(c2)CC(=O)N3)ncc1C(F)(F)F)S(C)(=O)=O`, for which the nucleus area z-score is -1.14.

The molecule `COc1ccc(C2=N[C@H](c3ccc(Cl)cc3)[C@H](c3ccc(Cl)cc3)N2C(=O)N2CCNC(=O)C2)c(OC(C)C)c1` [Nutlin-3b] returned a nucleus area z-score of 0.349.

The molecule `OCCOc1ccc(/C(=C(/CCCl)c2ccccc2)c2ccccc2)cc1` [Ospemifene] gave a nucleus area z-score of 0.31.

In the case of `Cc1ccccc1CN1C2=NCCN2C(=O)C2=C1CCN(Cc1ccccc1)C2` [TIC10 Analogue], the nucleus area z-score was -0.226.

For the molecule `CNC[C@H](O)[C@@H](O)[C@H](O)[C@H](O)CO` [Meglumine], the nucleus area z-score is -0.66.

Consider `Cc1c(C)c2c(c(C)c1O)CC[C@@](C)(CCC[C@H](C)CCC[C@H](C)CCCC(C)C)O2` [Vitamin E], for which the nucleus area z-score was -1.08.

With `COc1ccnc2[nH]cc(C(=O)C(=O)N3CCN(C(=O)c4ccccc4)C[C@H]3C)c12`, the nucleus area z-score turned out to be 0.659.

Molecule `Cc1cc(Nc2ccc(NC(=O)c3ccc(Nc4ccnc5ccccc45)cc3)cc2)nc(N)n1` came in with a nucleus area z-score of -12.1.

In turn, `CCC(=O)OCC(=O)[C@@]1(OC(=O)CC)[C@@H](C)C[C@H]2[C@@H]3CCC4=CC(=O)C=C[C@]4(C)[C@@]3(Cl)[C@@H](O)C[C@@]21C` [Beclomethasone dipropionate] returned a nucleus area z-score of 0.754.

`CN(C)[C@@H]1C(O)=C(C(N)=O)C(=O)[C@@]2(O)C(O)=C3C(=O)c4c(O)cccc4[C@@](C)(O)[C@H]3C[C@@H]12` [Tetracycline HCl] came in with a nucleus area z-score of -0.142.

On to `CCC[C@@H]1C[C@@H](C(=O)N[C@@H]([C@H]2O[C@H](SC)[C@H](OP(=O)(O)O)[C@@H](O)[C@H]2O)[C@H](C)Cl)N(C)C1` [Clindamycin Phosphate], for which the nucleus area z-score came out at 0.286.

In the case of `O=S(=O)(NCCNC/C=C/c1ccc(Br)cc1)c1cccc2cnccc12`, the nucleus area z-score is -0.206.

Take `O=C(O)c1cc2cccc([N+](=O)[O-])c2[nH]1`: the nucleus area z-score was 0.474.

Turning to `CNC1CCC(N(Cc2cccc(-c3ccncc3)c2)C(=O)c2sc3ccccc3c2Cl)CC1` (stereo not drawn) [Smoothened Agonist (SAG) HCl], the nucleus area z-score was -3.37.

Molecule `Cc1ccc(Cl)cc1N(CC(=O)Nc1c(F)cccc1F)S(C)(=O)=O` had a nucleus area z-score of -0.209.

`CC(C)Oc1ccc(-c2nc(-c3cccc4c3CC[C@@H]4NCCO)no2)cc1C#N` [Ozanimod (RPC1063)] had a nucleus area z-score of 0.943.

In turn, `O=c1c(-c2ccc(O)cc2)coc2cc(O)ccc12` [Daidzein] came in with a nucleus area z-score of 1.03.

Molecule `Nc1nc(CC(=O)Nc2ccc(CCNC[C@H](O)c3ccccc3)cc2)cs1` [Mirabegron] returned a nucleus area z-score of -0.133.

The molecule `Cc1ccnc2c1NC(=O)c1cccnc1N2C1CC1` [Nevirapine] came in with a nucleus area z-score of 0.74.

`Cc1ccsc1C(=CCCN1CCC[C@@H](C(=O)O)C1)c1sccc1C` [Tiagabine]: the nucleus area z-score was 0.143.

`Cc1cc(C)nc(NS(=O)(=O)c2ccc(NC(=S)NC(=O)COc3ccc(Br)cc3Cl)cc2)n1`: the nucleus area z-score was -0.0947.

`CCC[C@@H]1C[C@@H](C(=O)N[C@@H]([C@H]2O[C@H](SC)[C@H](O)[C@@H](O)[C@H]2O)[C@@H](C)O)N(C)C1` [Lincomycin HCl] registered a nucleus area z-score of -0.355.

As for `N[C@@H](CCC(=O)N[C@@H](CS)C(=O)NCC(=O)O)C(=O)O` [Glutathione], the nucleus area z-score was found to be 1.91.

With `Cc1nc2c(O)cccc2c(=O)[nH]1`, the nucleus area z-score stood at 1.31.

For the molecule `CCN1CCN(Cc2ccc(-c3cc4c(N[C@H](C)c5ccccc5)ncnc4[nH]3)cc2)CC1`, the nucleus area z-score came to 0.811.
